# Data from PubChem BioAssay AID1508601 (ICCB-Longwood Screening Facility, Harvard Medical School, 2020).
# The chains behind the UniProt entries cited, without tags or fusion partners.
# UniProt P04637, whole entry: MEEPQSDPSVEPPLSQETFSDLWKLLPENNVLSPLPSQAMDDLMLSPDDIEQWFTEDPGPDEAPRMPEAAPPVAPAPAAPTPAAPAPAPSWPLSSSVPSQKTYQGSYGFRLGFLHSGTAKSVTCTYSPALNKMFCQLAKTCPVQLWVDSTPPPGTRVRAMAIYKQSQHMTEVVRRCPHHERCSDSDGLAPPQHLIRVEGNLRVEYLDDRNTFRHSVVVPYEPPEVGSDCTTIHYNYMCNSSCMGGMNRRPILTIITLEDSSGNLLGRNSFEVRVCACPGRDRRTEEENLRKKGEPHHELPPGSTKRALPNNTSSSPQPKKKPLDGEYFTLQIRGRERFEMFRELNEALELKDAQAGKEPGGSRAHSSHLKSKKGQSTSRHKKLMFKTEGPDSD
# Some of the results follow.
# Tests used:
# [1] = nuclear p53 accumulation, HPV+ cells – imaging, p53-positive nuclei imaging, 24 h, 48 h (AID 1508601); details: 24/48 h, concentration not given here
# [2] = biological target: Cellular tumor antigen p53 (Homo sapiens) (UniProt P04637); assay: as above; details: 24/48 h, measured here: p53 positive nuclei at 24 h, stronger effect = higher value, concentration not given here
compound,measurement,setting,value
OCCSCCO,"nuclei count, normalised",[1]; measured here: cell number at 24 h,112%
same,"nuclei count, normalised",[1]; measured here: cell number at 48 h,107%
same,"p53-positive nuclei, normalised",[2],0.00292%
